The inconclusive results got no clear call from the source; some entries with a clear call stand among them for comparison. A potency beside an inconclusive call is a rough fit, not a confirmed value. The source made the active and inactive calls. Calls come from the whole dose curve; as a rule, active = well fitted inhibition curve with a large enough effect; inconclusive = small, poorly fitted or top-dose-only effect; inactive = no such curve, though single readings can be large or run the other way.
Experiment: Acumen qHTS Assay for Inhibitors of the mTORC1 Signaling Pathway in WT MEF Cells: Hit Validation; note: nearly all actives have a fitted effect of over 60% in size;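 for activity change, negative = inhibition: phospho-rpS6 Ser235/236 immunofluorescence normalised to propidium iodide cell stain; percent of cells above a cutoff set by 7.5 nM rapamycin treated wells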
Conditions: Acumen imaging; series mostly up to 37.3 µM; activity change, negative = inhibition: at the top concentration
Method in brief: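 Read-out is immunofluorescent phospho-rpS6 (Ser235/236) normalised to PI-stained cell number, reported as % active cells using a 7.5 nM rapamycin threshold. Cells: WT or Tsc2-/-, p53-/- MEFs, compound-exposed 24 h at 37C; PI count also tracks viability.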
In the case of `O=Nc1c(-c2c(O)[nH]c3cc(Br)ccc23)[nH]c2ccccc12`, the Potency is reported as inconclusive: 5.78 µM [inhibitor, full curve, poor fit].
In the case of `CCCC(=O)OC1=CN(Cc2ccccc2)S(=O)(=O)c2ccccc21`, the Potency is reported as active: 3.69 µM.
With `COc1cc(C2CC(=O)Nc3cc4c(cc32)OCCO4)cc(Br)c1OC` (configuration not stated) the Potency was active: 0.0521 µM.
With `CC(C)(C)OC(=O)N1CCC(c2c(C(=O)NCCN3CCC(Cc4ccccc4)CC3)cnn2-c2cccc(Cl)c2)CC1` the Potency was active: 10.4 µM.
In the case of `Cc1ccc(-c2nnc(Nc3cccc(Cl)c3)c3ccccc23)cc1S(=O)(=O)N1CCN(C)CC1`, the Potency is reported as inconclusive: 14.7 µM [inhibitor, single point].
For `CCOc1cccc(C2CC(=O)Nc3cc4c(cc32)OCCO4)c1` (configuration not stated), the Potency was inconclusive: 16.5 µM [inhibitor, single point].
In the case of `COc1ccccc1-c1cc(C(=O)Nc2cc(OC)c(OC)c(OC)c2)no1`, the Potency is reported as inconclusive: 0.927 µM [inhibitor, full curve].
For `Cc1cccc(CSCCNC(=O)CN(c2ccccc2)S(=O)(=O)N(C)C)c1`, the “activity change, negative = inhibition” value was inactive: -2.29%.
With `COCCCNC(=O)c1ccc(CSc2nc3cccnc3n2Cc2ccc(OC)cc2)cc1` the “activity change, negative = inhibition” value was inactive: -10.2%.
For `CCN(CC)CCn1c(=N)n(CCOc2ccccc2Cl)c2ccccc21`, the Potency was active: 9.27 µM.
For `CCN(CCCNC(=O)c1cc2c(=O)n(CC)c3ccccc3c2s1)Cc1ccccc1`, the Potency was inconclusive: 26.1 µM [inhibitor, single point].
With `CCCCOc1cccc(C(=O)N(Cc2cccs2)c2ccc(OC)cc2)c1` the Potency was inconclusive: 26.1 µM [inhibitor, single point].

Reference: PubChem BioAssay AID651789 (National Center for Advancing Translational Sciences (NCATS), 2012)
Potency is the fitted concentration of half-maximal effect.
